From publication PMC11596310 come the findings set out here.

Sequences of proteins named here, by UniProt entry; tags and fusion partners are left off.
UniProt Q15717: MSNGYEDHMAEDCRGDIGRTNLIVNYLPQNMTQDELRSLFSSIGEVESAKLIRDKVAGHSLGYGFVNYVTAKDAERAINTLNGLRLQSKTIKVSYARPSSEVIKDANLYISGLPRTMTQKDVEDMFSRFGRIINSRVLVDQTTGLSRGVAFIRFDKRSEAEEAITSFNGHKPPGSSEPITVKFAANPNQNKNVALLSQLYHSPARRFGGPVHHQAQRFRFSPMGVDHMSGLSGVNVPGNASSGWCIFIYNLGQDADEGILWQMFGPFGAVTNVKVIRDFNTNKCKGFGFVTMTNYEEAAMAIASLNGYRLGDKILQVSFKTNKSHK

The target in this assay is T1, YTHDF2 (human (endogenous in HeLa)) (UniProt Q9Y5A9).
T1 sequence: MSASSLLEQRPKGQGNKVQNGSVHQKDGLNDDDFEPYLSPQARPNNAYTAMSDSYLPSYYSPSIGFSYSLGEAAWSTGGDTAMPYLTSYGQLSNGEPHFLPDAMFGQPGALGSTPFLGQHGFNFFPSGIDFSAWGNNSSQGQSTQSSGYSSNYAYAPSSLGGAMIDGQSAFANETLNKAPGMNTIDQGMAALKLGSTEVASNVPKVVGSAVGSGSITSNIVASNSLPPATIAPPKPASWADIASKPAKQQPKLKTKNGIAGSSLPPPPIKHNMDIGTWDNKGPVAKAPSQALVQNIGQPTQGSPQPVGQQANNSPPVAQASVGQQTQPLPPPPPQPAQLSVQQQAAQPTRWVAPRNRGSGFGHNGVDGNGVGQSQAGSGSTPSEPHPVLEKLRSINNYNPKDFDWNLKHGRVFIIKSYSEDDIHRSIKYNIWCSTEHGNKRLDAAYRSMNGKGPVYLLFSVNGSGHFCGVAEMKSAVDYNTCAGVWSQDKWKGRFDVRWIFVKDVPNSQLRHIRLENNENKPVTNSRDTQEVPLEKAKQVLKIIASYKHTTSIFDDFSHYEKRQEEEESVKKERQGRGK
The assay is described as follows: co-IP; HeLa cells infected with CVB3 at MOI 10 for 3 h; lysis buffer 25 mM Tris HCl, 150 mM NaCl, 1 mM EDTA, 1% NP40, 5% glycerol, pH 7.4; precleared lysate precipitated overnight with anti-YTHDF2 on agarose beads and blotted for HuR, and conversely with anti-HuR and blotted for YTHDF2; IgG as control.

These are yes or no findings as the source states them, for the method shown. In cells and extracts the contact can be indirect. Some results given as binding are weak or reduced against the parent protein; the word gives no strength.

Turning to “human antigen R (HuR) (from UniProt Q15717 1-326)”, the binding result is on record as “binds”.
